Results published in patent publication US20080085886A1, “Aza-benzofuranyl compounds and methods of use” (GENENTECH, INC., priority 2006, published 2008).
Some entries share one result that the patent states for a list of compounds.

Chains of the proteins cited; added tags and fusions are not shown.
UniProt Q02750, whole entry S218D/S222D: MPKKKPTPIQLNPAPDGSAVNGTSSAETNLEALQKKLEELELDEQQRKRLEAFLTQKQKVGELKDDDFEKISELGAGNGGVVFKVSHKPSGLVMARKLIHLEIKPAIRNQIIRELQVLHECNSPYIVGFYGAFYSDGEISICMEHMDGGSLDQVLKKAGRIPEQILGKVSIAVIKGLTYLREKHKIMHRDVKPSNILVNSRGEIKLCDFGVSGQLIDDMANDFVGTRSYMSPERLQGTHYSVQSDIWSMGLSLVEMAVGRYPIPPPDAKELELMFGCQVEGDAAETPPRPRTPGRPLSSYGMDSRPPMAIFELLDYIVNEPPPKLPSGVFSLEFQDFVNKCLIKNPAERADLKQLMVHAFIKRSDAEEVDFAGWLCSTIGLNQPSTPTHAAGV
UniProt Q02750, whole entry, stated change not applied: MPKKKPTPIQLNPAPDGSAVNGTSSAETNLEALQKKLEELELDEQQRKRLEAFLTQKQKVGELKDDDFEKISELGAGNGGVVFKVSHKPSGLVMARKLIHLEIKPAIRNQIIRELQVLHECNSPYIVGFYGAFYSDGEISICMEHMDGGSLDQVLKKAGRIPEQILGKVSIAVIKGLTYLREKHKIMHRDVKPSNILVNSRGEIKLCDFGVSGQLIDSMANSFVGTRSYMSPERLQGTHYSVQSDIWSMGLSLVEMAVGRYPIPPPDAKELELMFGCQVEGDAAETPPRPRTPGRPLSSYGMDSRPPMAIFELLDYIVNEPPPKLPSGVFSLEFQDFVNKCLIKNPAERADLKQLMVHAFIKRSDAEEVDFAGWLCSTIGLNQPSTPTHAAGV

Columns and labels:
[1] = target: Constitutively activated human mutant MEK1 (Homo sapiens, UniProt Q02750); test: MEK assay (MEK activity assay), Example 1a or 1b; format: biochemical; settings: assay described either in Example 1a or 1b; 50 μM ATP, GST-ERK1 substrate, HTRF
[2] = target: Constitutively activated bRaf mutant (Homo sapiens, UniProt Q02750); test: bRaf assay (MEK activation assay), Example 2; format: biochemical; settings: 200 μM ATP, GST-MEK1 substrate, HTRF

Structure (SMILES)	IC50 [1]	IC50 [2]
C#Cc1ccc(Nc2c(C(=O)NOC[C@H](O)CO)oc3ccncc23)c(F)c1 [Example 7, 3-(4-Ethynyl-2-fluoro-phenylamino)-furo[3,2-c]pyridine-2-carboxylic acid ((R)-2,3-dihydroxy-propoxy)-amide]	< 10 µM	< 5 µM
C=COCCONC(=O)c1oc2ccncc2c1Nc1ccc(I)cc1F [Example 11, 3-(2-Fluoro-4-iodo-phenylamino)-furo[3,2-c]pyridine-2-carboxylic acid (2-vinyloxy-ethoxy)-amide]	< 10 µM	< 5 µM
O=C(NOC[C@H](O)CO)c1oc2ncncc2c1Nc1ccc(I)cc1F [Example 19, 5-(2-Fluoro-4-iodo-phenylamino)-furo[2,3-d]pyrimidine-6-carboxylic acid ((R)-2,3-dihydroxy-propoxy)-amide]		< 5 µM
O=C(NOC[C@H](O)CO)c1oc2ccncc2c1Nc1c(F)cc(I)cc1F [Example 14, 3-(2,6-Difluoro-4-iodo-phenylamino)-furo[3,2-c]pyridine-2-carboxylic acid ((R)-2,3-dihydroxy-propoxy)-amide]	< 10 µM	< 5 µM
O=C(NOC[C@H](O)CO)c1oc2ccncc2c1Nc1ccc(Br)cc1F [Example 6, 3-(2-Fluoro-4-bromo-phenylamino)-furo[3,2-c]pyridine-2-carboxylic acid ((R)-2,3-dihydroxy-propoxy)-amide]	< 10 µM	< 5 µM
O=C(NOC[C@H](O)CO)c1oc2ccncc2c1Nc1ccc(I)cc1Cl [Example 13, 3-(2-Chloro-4-iodo-phenylamino)-furo[3,2-c]pyridine-2-carboxylic acid ((R)-2,3-dihydroxy-propoxy)-amide]	< 10 µM	< 5 µM
O=C(NOCCN1CCOCC1)c1oc2ccncc2c1Nc1ccc(I)cc1F [Example 17, 3-(2-Fluoro-4-iodo-phenylamino)-furo[3,2-c]pyridine-2-carboxylic acid (2-morpholin-4-yl-ethoxy)-amide]	< 10 µM	< 5 µM
O=C(NOC[C@H](O)CO)c1oc2ccncc2c1Nc1cc(F)c(I)cc1F [Example 15, 3-(2,5-Difluoro-4-iodo-phenylamino)-furo[3,2-c]pyridine-2-carboxylic acid ((R)-2,3-dihydroxy-propoxy)-amide]	< 10 µM	< 5 µM
O=C(NOC[C@H](O)CO)c1oc2c(Br)cncc2c1Nc1ccc(I)cc1F [Example 18, 7-Bromo-3-(2-fluoro-4-iodo-phenylamino)-furo[3,2-c]pyridine-2-carboxylic acid ((R)-2,3-dihydroxy-propoxy)amide]	< 10 µM	< 5 µM
O=C(NOC[C@H](O)CO)c1oc2ccncc2c1Nc1ccc(I)cc1 [Example 12, 3-(4-Iodo-phenylamino)-furo[3,2-c]pyridine-2-carboxylic acid ((R)-2,3-dihydroxy-propoxy)-amide]	< 10 µM	< 5 µM
O=C(NOC[C@H](O)CO)c1oc2cnccc2c1Nc1ccc(I)cc1F [Example 9, 3-(2-Fluoro-4-iodo-phenylamino)-furo[2,3-c]pyridine-2-carboxylic acid ((R)-2,3-dihydroxy-propoxy)-amide]	< 10 µM	< 5 µM
CC(C)(C)OC(=O)N1CCC(ONC(=O)c2oc3ccncc3c2Nc2ccc(I)cc2F)CC1 [Example 16, 4-{[3-(2-Fluoro-4-iodo-phenylamino)-furo[3,2-c]pyridine-2-carbonyl]aminooxy}-piperidine-1-carboxylic acid tert-butyl ester]	< 10 µM	< 5 µM
CN(C)C(=O)c1oc2c(COc3ccccc3)cncc2c1Nc1ccc(I)cc1F [Example 106, 3-(2-Fluoro-4-iodo-phenylamino)-7-phenoxymethyl-furo[3,2-c]pyridine-2-carboxylic acid dimethylamide]	< 10 µM	
CC(C)(C)ONC(=O)c1oc2ccncc2c1Nc1ccc(I)cc1F [Example 99, (2-Fluoro-4-iodo-phenylamino)-N-tert-butoxyfuro[3,2-c]pyridine-2-carboxamide]	< 10 µM	
N#Cc1cncc2c(Nc3ccc(I)cc3F)c(C(=O)NOCCO)oc12 [Example 40, 7-Cyano-3-(2-fluoro-4-iodo-phenylamino)-furo[3,2-c]pyridine-2-carboxylic acid (2-hydroxy-ethoxy)-amide]	< 10 µM	
CN(c1ccc(I)cc1F)c1c(C(=O)NOCCO)oc2ccncc12 [Example 22, 3-[(2-Fluoro-4-iodo-phenyl)-methyl-amino]-furo[3,2-c]pyridine-2-carboxylic acid (2-hydroxy-ethoxy)-amide]	< 10 µM	
O=C(c1oc2ccncc2c1Nc1ccc(I)cc1F)N1CC(CO)C1 [Example 149, (3-(2-fluoro-4-iodophenylamino)furo[3,2-c]pyridin-2-yl)(3-(hydroxymethyl)azetidin-1-yl)methanone]	< 10 µM	
O=C(c1oc2ccncc2c1Nc1ccc(I)cc1F)N1CCC(O)CC1 [Example 88, (3-(2-fluoro-4-iodophenylamino)furo[3,2-c]pyridin-2-yl)(4-hydroxypiperidin-1-yl)methanone]	< 10 µM	
CSc1ccc(Nc2c(C(=O)NOCCO)oc3ccncc23)c(F)c1 [Example 35, 3-(2-Fluoro-4-methylsulfanyl-phenylamino)-furo[3,2-c]pyridine-2-carboxylic acid (2-hydroxy-ethoxy)-amide]	< 10 µM	
O=C(NOCC1CC1)c1oc2ccncc2c1Nc1ccc(I)cc1F [Example 8, 3-(2-Fluoro-4-iodo-phenylamino)-furo[3,2-c]pyridine-2-carboxylic acid cyclopropylmethoxy-amide]	< 10 µM	< 5 µM
CC(O)CONC(=O)c1oc2ccncc2c1Nc1ccc(I)cc1F (stereo not drawn) [Example 55, 3-(2-Fluoro-4-iodo-phenylamino)-furo[3,2-c]pyridine-2-carboxylic acid (2-hydroxy-propoxy)-amide]	< 10 µM	
CCONC(=O)c1oc2ccncc2c1Nc1ccc(I)cc1F [Example 50, (2-Fluoro-4-iodo-phenyl amino)-N-ethoxyfuro[3,2-c]pyridine-2-carboxamide]	< 10 µM	
O=C(NCCC(O)CO)c1oc2ccncc2c1Nc1ccc(I)cc1F (stereo not drawn) [Example 93, 3-(2-fluoro-4-iodophenylamino)-N-(3,4-dihydroxybutyl)furo[3,2-c]pyridine-2-carboxamide]	< 10 µM	
COCCNC(=O)c1oc2ccncc2c1Nc1ccc(I)cc1F [Example 62, 3-(2-fluoro-4-iodophenylamino)-N-(2-methoxyethyl)furo[3,2-c]pyridine-2-carboxamide]	< 10 µM	
CS(=O)(=O)NCCONC(=O)c1oc2ccncc2c1Nc1ccc(I)cc1F [Example 109, 3-(2-Fluoro-4-iodo-phenylamino)-furo[3,2-c]pyridine-2-carboxylic acid (2-methanesulfonylamino-ethoxy)-amide]	< 10 µM	
Cc1ccc(Nc2c(C(=O)NOCCO)oc3ccncc23)c(F)c1 [Example 34, 3-(2-Fluoro-4-methyl-phenylamino)-furo[3,2-c]pyridine-2-carboxylic acid (2-hydroxy-ethoxy)-amide]	< 10 µM	
O=C(NOCc1c[nH]cn1)c1oc2ccncc2c1Nc1ccc(I)cc1F [Example 142, 3-(2-Fluoro-4-iodo-phenylamino)-furo[3,2-c]pyridine-2-carboxylic acid (1H-imidazol-4-ylmethoxy)-amide]	< 10 µM	
